Not every detail of the peptide structures is certain; ends, links or a residue may be inferred.
Assays:
[1] = system: ischemic injury; conditions: after ischemic injury; cited from earlier work
[2] = biological target: T1, muscle actin (Homo sapiens, UniProt P68133); test: Direct NAP binding by dot blot analysis; conditions: 1 microgram protein/microliter/spot, biotin-labeled NAP detection
T1 construct: purchased Sigma, Rehovot, Israel

[3] = system: neurons plated on a bed of astrocytes; conditions: cited from earlier work
[4] = system: NIH3T3 cells; test: Confocal microscopy of microtubule organization; format: cell-based, mouse; conditions: NIH3T3, 2 h after exposure
[5] = system: non-muscle actin from human platelets; test: Direct NAP binding by dot blot analysis; conditions: 1 microgram protein/microliter/spot, biotin-labeled NAP detection
[6] = system: adenocarcinoma cells from human breast (MCF-7); test: NAP activity screen of cell lines; format: cell-based
[7] = system: African green monkey kidney cell (COS-7); test: NAP activity screen of cell lines; format: cell-based
[8] = system: Bovine MAP-rich tubulin; test: Microtubule assembly, absorbance at 350 nm; format: biochemical
Method: A microtubule assembly kit CytoDYNAMIX Screen 01(CDS01) was obtained from Cytoskeleton (Denver, Colo.). Bovine MAP-rich tubulin (HTS01) was resuspended in G-PEM buffer (80 mM PIPES pH 6.9, 1 mM MgCl, 1 mM EGTA and 1 mM GTP) and subjected to polymerization at 37° C. The reaction was performed in 96-well plate. Assembly was monitored with a spectrophotometer SPECTRAmax 190 (Molecular Devices, Sunnyvale, Calif.) employing continuous recording at 350 nm.

[9] = system: neurons in mixed cerebral cortical cells from newborn rat brains; test: Confocal microscopy of microtubule re-organization and neuronal morphology; format: cell-based
[10] = system: brain tubulin; test: Direct NAP binding by dot blot analysis; conditions: 1 microgram protein/microliter/spot, biotin-labeled NAP detection
[11] = system: normal aging rats; conditions: intranasal administration; cited from earlier work
[12] = system: ND-Swiss male mice; test: Elevated plus maze, chronic intranasal NAP; format: in vivo, mouse; conditions: vs control group; for number of closed arms entries: motor function index
[13] = system: Rat pheochromocytoma cells (PC12); test: Neuroprotection against oxidative stress (H2O2), MTS metabolic activity; format: cell-based
[14] = system: PC12 cells; test: Confocal microscopy of microtubule organization; format: cell-based, rat; conditions: NGF-differentiated PC12 cells
[15] = system: cell cultures; conditions: against a wide variety of toxins; cited from earlier work
[16] = system: astrocytes; test: ZnCl2-induced cell death; format: cell-based, rat; conditions: co-treatment with ZnCl2
[17] = system: ND-Swiss male mice; test: Morris water maze, chronic intranasal NAP; format: in vivo, mouse; conditions: 15 months age
Method: ND-Swiss male mice (8 months old; Harlan Sprague Dawley, Inc., Indianapolis, Ind.) were kept under a 12:12 hour light/dark regimen, with food and water available at all times. The mice were kept in the animal care facility of the Tel Aviv University in compliance with institutional and state guidelines.
NAP was custom synthesized by Peninsula (Bachem, Torrance, Calif., USA) or Peptide Technologies (Bethesda, Md., USA). The peptide was dissolved in a solution DD, in which each milliliter included 7.5 mg NaCl, 1.7 mg citric acid monohydrate, 3 mg disodium phosphate dihydrate and 0.2 mg benzalkonium chloride solution (50%). The peptide was administered intranasally every day, 5 days a week, 0.5 μg in 10 μl for each mouse, half the portion in each nostril. The control group received 10 μl of the inert carrier per day. The mice were treated at least 1 h prior to the daily experiment (water maze).
Mice were also subjected to two daily tests in a Morris water maze (diameter 90 cm; depth, 20 cm), as described in WO 01/092333, incorporated herein by reference. Latency to reach the hidden platform over a 90 second test period was recorded. The experiment was performed for 4-5 consecutive days. […] The platform was then removed from the maze and the time spent by the mice in the pool's quarter where the platform used to be was recorded (for 90 seconds). […]

[18] = system: neuronal-enriched cultures; conditions: cited from earlier work
[19] = biological target: T2, beta actin (Rattus norvegicus, UniProt P60711); test: NAP affinity chromatography of brain extract with mass spectrometry identification; format: binding; conditions: immobilized elongated NAP, in gel trypsin proteolysis and mass spectrometry
T2 construct: A protein lysate was prepared from one-day-old rat brains; from tissue; host or cells: one-day-old rat brain lysate

[20] = system: mouse fibroblasts (NIH3T3); test: NAP activity screen of cell lines; format: cell-based
[21] = system: human fibroblasts (BJ); test: NAP activity screen of cell lines; format: cell-based
[22] = system: adenocarcinoma cells from human colon (HT-29); test: NAP activity screen of cell lines; format: cell-based
[23] = system: animal models simulating parts of the Alzheimer's disease pathology; conditions: in vivo; cited from earlier work
[24] = biological target: T3, rat alpha tubulin (Rattus norvegicus, UniProt P68370); test: NAP affinity chromatography of brain extract with mass spectrometry identification; format: binding; conditions: immobilized elongated NAP, in gel trypsin proteolysis and mass spectrometry
T3 construct: A protein lysate was prepared from one-day-old rat brains; from tissue; host or cells: one-day-old rat brain lysate

[25] = system: astrocytes from newborn rat cerebral cortex; test: Confocal microscopy of microtubule re-organization; format: cell-based
Method: Rat cerebral cortical cells from newborn pups were prepared as before (Bassan et al., 1999). All procedures performed in these studies were conducted in accordance with the Tel Aviv University regulations and were approved by the Animal Care and Use Committee of Tel Aviv University. The use of animals was not excessive and no animal suffering occurred. In short, cerebral cortical tissue was incubated for 20 minutes at 37° C. in Hanks' balanced salt solution+15 mM HEPES, pH 7.3 containing trypsin B (Biological Industries, Beit Haemek, Israel). Dissociated cerebral cortical cells were added to the culture dish with 5% horse serum in DMEM. Cells were plated in a ratio of 1 cortex per two 75 cm^2 cell culture flasks (polystyrene, Corning, N.Y.). The medium was changed 1 day after plating. For astrocyte cultures, cells were split after 10 incubation days and plated in 24 well plates (each flask into 60 wells containing microscope cover glasses (12 mm diameter) and 250 μl medium). Cells were then incubated two additional weeks. For mixed neuroglial cultures, dissociated cerebral cortical cells were plated on a bed of astrocytes 2 weeks after the split and incubated in neuron-specific medium as before (Bassan et al., 1999; Brenneman, & Gozes, J. Clin. Invest. 97:2299-2307 (1996); based on Forsythe & Westbrook, J. Physiol. 396:515-533 (1988)).
Synthetic NAP or fluorescein-labeled NAP (FITC-NAP) was added to tissue culture cells (ascending concentrations) and incubated for 15 mins-24 hours. After incubation, cells were extensively washed and fixed in 4% paraformaldehyde. Following fixation, Triton X-100 (0.2% was added to allow antibody cellular penetration for mouse monoclonal tubulin antibodies (TUB 2.5; Gozes & Barnstable, Proc. Natl. Acad. Sci. USA 79:2579-2583 (1982)) and rhodamin-labeled secondary goat antimouse IgG (Jackson ImmunoResearch, West Grove, Pa.). For specific neuronal staining in primary neuronal cultures, mouse monoclonal tubulin antibodies TUB2.1 (Gozes & Barnstable, 1982) were used. Further neuronal identification was obtained by staining with antibodies against neuron specific enolase as before (Brenneman & Gozes, 1996). Fluorescent cells were analyzed with a Zeiss confocal laser scanning microscope. Zeiss LSM 410 inverted (Oberkochen, Germany) is equipped with a 25-milliwatt krypton-argon laser (488 and 568 nm maximum lines). A 40×/1.2 W Apochromat water-immersion lens (Axiovert 135M, Zeiss) was utilized for all imaging.

[26] = system: model of fetal alcohol syndrome; conditions: in vivo, ip; cited from earlier work
[27] = system: PC12, COS-7, MCF-7, HT-29, BJ, NIH3T3 cell lines; conditions: any of the tested cell lines; cited from earlier work
[28] = system: closed head injury in mice; conditions: cited from earlier work
[29] = 13 months age, 5 months chronic intranasal NAP
[30] = 16 months age, 8 months chronic intranasal NAP

In the case of `CC[C@H](C)[C@H](NC(=O)[C@H](CO)NC(=O)[C@@H](NC(=O)[C@@H]1CCCN1C(=O)[C@H](C)NC(=O)[C@@H](N)CC(N)=O)C(C)C)C(=O)N1CCC[C@H]1C(=O)N[C@@H](CCC(N)=O)C(=O)O` [NAP], the “infarct volume and motor function deficits” value [1] is given as “reduced”, the “binding in dot blot assay” value [2] is given as “no interaction” and the “concentrations giving more potent protection” value [3] is given as “femtomolar”. The “change in the microtubule organization” value [4] was “no apparent change”, the “binding in dot blot assay” value [5] was “binding” and the “response to NAP” value [6] was “did not respond”. For the same molecule, the “response to NAP” value [7] was “did not respond”, the “effect on tubulin assembly” value ([8]; 10^−8 M, 40 minutes assembly period at 37° C.) was “no significant stimulation” and the “effect on tubulin assembly” value ([8]; 10^−10 M, compared with 10^−15 M) was “the same degree”. The “effect on microtubule assembly” value ([8]; 10^−15 M) was “stimulated microtubule assembly in a similar way to paclitaxel”, the “effect on microtubule assembly” value ([8]; 10^−18 M) was “did not influence” and the “treated neurons with NAP-related microtubule re-arrangement” value ([9]; 2 h after 10^−15 M) was ~97%. For the same molecule, the “microtubule re-organization in neurons” value ([9]; TUB2.1 tubulin antibody staining) was “extensive microtubule re-organization”, the “number of processes per cell” value ([9]; mean+/−SEM, in 64 neurons, 2 h, P<0.001 vs untreated) was 6.47+/−0.3 and the “cells exhibiting the NAP-related re-rearrangement” value ([9]; out of 213 cells counted, 2 h after 10^−15 M) was 208. The “binding in dot blot assay” value [10] was “binding”, the “performance in the Morris water maze” value [11] was “improved performance” and the “percentage of time spent in the open arms” value ([12]; 13 months age, 5 months chronic intranasal NAP 0.5 μg/day) was “significantly higher”. For the same molecule, the “mean percentage of open arm entries out of total arms entries” value [12, 29] was “similar”, the “total number of arms entries” value [12, 29] was “similar” and the “number of closed arms entries” value [12, 29] was “similar”. The “percentage of open arm entries out of total arms entries” value [12, 30] was “significantly higher”, the “percentage of time spent in the open arms” value [12, 30] was “significantly higher” and the “total amount of arms entries” value [12, 30] was “not significantly different”. The “number of closed arms entries” value [12, 30] was “not significantly different”, the “response to NAP neuroprotection against the effects of oxidative stress” value [13] was “responded to NAP neuroprotection” and the “cells with microtubule rearrangement” value [14] was 100 % of the cells. The “concentrations with neuroprotective activity” value [15] was “femtomolar”, the “effect on Zn-associated cell death” value [16] was “inhibited” and the “probe test: time in the area of the pool where the platform used to be” value [17] was 25.8 ± 3.4 sec/90 sec. The “concentrations protecting against beta amyloid toxicity” value [18] was “nanomolar”, the “identity of the second NAP-binding band (~42,000 Dalton)” value [19] was “beta actin” and the “response to NAP” value [20] was “did not respond”. The “response to NAP” value [21] was “did not respond”, the “response to NAP” value [22] was “did not respond” and the “protection in animal models” value [23] was “protective”. The “identity of the ~50,000 Dalton NAP-binding protein” value [24] was “rat alpha tubulin”, the microtubule reorganization ([25]; 4° C.) was “did not take place” and the microtubule reorganization ([25]; 10^−15 M, pH 3.0, 15 minutes) was “microtubule reorganization was apparent”. For the same molecule, the “microtubule re-organization / microtubule-associated morphological change” value ([25]; astrocytes) was “microtubule re-organization was observed”, the “time of maximal microtubule organization after treatment” value ([25]; number of cells undergoing re-organization, decline at 24 h) was 2 to 4 h and the “fetal death after intraperitoneal injection of alcohol” value [26] was “inhibited”. The cell proliferation effect [27] was “No cell proliferation effect” and the “damage caused by closed head injury” value [28] was “reducing damage”.
